From paper PMC12754617, “Ruthenium-enhanced curcumin derivatives target tumor growth and cancer-related inflammation in head and neck cancer models” (Frontiers in Oncology, 2025)

Experiments:
Assay in all cases: MTT viability assay
Type in all cases: cell-based, human
[1] = test system: Hep-2; details: IC50 HGF / IC50 Hep-2, 24 h
Description: (§1) A colorimetric 3-(4,5-dimethylthiazolyl)-2,5-diphenyltetrazolium bromide (MTT) cell metabolic activity assay was used to assess the cytotoxicity of complexes 3 and 4. The cells (described above) were cultured under standard conditions. Cells were seeded in 96-well plates at a density of 10,000 cells per well (200 μL) and allowed to grow for 24 h. The medium was then replaced with medium containing complex 3 or 4 at a concentration ranging from 0 to 200 μM, and the cells were incubated for an additional 24, 48, and 72 h. Subsequently, the medium was replaced with MTT solution, consisting of yellow tetrazolium dye 3-(4,5-dimethylthiazol-2-yl)-2,5-diphenyltetrazolium bromide (Sigma-Aldrich, Merck, Germany), and incubated for 2 h at 37°C. The dye was then removed, and the resulting purple formazan formed in viable cells was dissolved in DMSO, followed by shaking for 30 s. Absorbance was measured at 570 nm using an […] 200 PRO microplate reader (TECAN, Männedorf, Switzerland). All experiments were performed in quadruplicate and repeated three times.
(§2) The cell inhibitory concentration (IC) was calculated using the equation IC = (Acomplex3/complex4 well/mean Acontrol wells) × 100%. The half-maximal inhibitory concentration (IC50) was determined from dose–response curves using GraphPad Prism 10 (GraphPad Software Inc., La Jolla, CA, USA). The selectivity index toward cancer cells was calculated as a ratio of the average IC50 value for HGF to the IC50 value for the corresponding cancer cell line.

[2] = test system: Detroit 562; details: IC50 HGF / IC50 Detroit 562, 24 h
Description: as §1, §2

[3] = test system: KB; details: IC50 HGF / IC50 KB
Description: as §1, §2

[4] = test system: CAL 27; details: IC50 HGF / IC50 CAL 27, 24 h
Description: as §1, §2

[5] = test system: FaDu; details: IC50 HGF / IC50 FaDu
Description: as §1, §2

[6] = test system: TR146; details: IC50 HGF / IC50 TR146, 24 h
Description: as §1, §2

[7] = test system: SCC-9; details: IC50 HGF / IC50 SCC-9, 24 h
Description: as §1, §2

Cc1ccc(C(C)C)cc1.Cc1ccc(C(C)C)cc1.O=C1C(=Cc2ccnc3ccccc23)COCC1=Cc1ccnc2ccccc12.[Cl][Ru][Cl].[Cl][Ru][Cl] [Complex 3]
Selectivity index 24h [1]: 1.63 | Selectivity index 24h [2]: 1.68 | Selectivity index 24h [3]: 1.45 | Selectivity index 24h [4]: 0.92 | Selectivity index 24h [5]: 2.40 | Selectivity index 24h [6]: 1.05 | Selectivity index 24h [7]: 4.41
